Paper PMC9513428
These are yes or no findings as the source states them, for the method shown. Binding seen in cells or lysates may run through a third protein.

Chains of the proteins cited; added tags and fusions are not shown. Residues count along the entry.
UniProt Q15059, residues 24-416: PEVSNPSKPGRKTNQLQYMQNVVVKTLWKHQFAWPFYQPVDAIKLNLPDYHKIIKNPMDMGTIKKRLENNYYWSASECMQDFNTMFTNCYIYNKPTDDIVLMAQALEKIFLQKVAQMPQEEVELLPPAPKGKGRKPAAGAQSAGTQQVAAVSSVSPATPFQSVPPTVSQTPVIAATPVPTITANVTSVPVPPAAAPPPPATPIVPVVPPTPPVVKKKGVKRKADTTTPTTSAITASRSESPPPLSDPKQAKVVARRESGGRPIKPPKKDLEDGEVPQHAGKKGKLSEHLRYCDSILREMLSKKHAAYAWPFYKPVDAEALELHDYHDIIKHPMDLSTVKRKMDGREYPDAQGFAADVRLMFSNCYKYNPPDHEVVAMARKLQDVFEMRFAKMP
UniProt Q04206: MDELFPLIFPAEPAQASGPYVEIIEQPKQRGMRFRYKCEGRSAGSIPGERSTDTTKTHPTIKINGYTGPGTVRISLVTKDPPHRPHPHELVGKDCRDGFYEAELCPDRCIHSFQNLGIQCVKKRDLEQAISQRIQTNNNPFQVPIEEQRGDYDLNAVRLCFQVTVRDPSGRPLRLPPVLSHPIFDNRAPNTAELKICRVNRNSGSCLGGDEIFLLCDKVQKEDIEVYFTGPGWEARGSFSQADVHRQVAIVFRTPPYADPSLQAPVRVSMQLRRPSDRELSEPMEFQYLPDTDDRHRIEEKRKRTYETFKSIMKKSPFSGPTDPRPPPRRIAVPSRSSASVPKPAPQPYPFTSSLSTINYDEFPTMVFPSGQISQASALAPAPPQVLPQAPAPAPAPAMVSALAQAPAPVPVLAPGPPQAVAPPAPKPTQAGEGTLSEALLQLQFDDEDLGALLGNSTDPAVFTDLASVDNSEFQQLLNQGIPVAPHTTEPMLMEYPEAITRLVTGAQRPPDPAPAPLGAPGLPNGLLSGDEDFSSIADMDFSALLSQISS

Molecular target: HaloTag-BRD3 tandem bromodomain construct (residues 24-416) (UniProt Q15059)
Test: FRET or BRET; NanoBRET in living INS 832/13 cells co-transfected with the HaloTag construct (4 μg) and NanoLuc-p65 (0.4 μg); HaloTag ligand Janelia Fluor 585 100 nM, 18 h at 37°C; DMSO vehicle; read-out 610/450 nm ratio in milliBRET units

binding: no binding
Substance: full-length NanoLuc-p65 (from UniProt Q04206 1-551)
